Source: PMC10528150
Results are given in words; binding and its absence hold for the method and conditions named.

Chains of the proteins cited; added tags and fusions are not shown. Lines headed by an entry give the natural chain unless they say otherwise; changes in a name come on top. A line that says so, or that is headed by a name, gives the form on record, which may keep a tag or linker.
cytochrome c with substitutions K8E/K27E/E62K/E69K/K72E/K86E/K87E/E90K (P00004, form named): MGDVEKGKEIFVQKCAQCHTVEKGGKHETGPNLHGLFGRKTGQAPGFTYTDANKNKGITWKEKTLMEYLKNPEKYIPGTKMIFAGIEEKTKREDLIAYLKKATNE

Molecular target: cytochrome c with substitutions K8E/K27E/E62K/E69K/K72E/K86E/K87E/E90K (horse) (UniProt P00004)
Assay: dynamic light scattering; Zetasizer Nano ZS, He-Ne laser 633 nm; basic medium (50 mM Hepes/Tris pH 7.6, 0.1 mM EDTA, 50 mM KCl); CytC 50 μM; monomer to dimer by particle size (3 nm against 6 nm); both purified

## cytochrome c with substitutions K8E/K27E/E62K/E69K/K72E/K86E/K87E/E90K (from UniProt P00004 1-105)
  binding: no binding (tested: 50 μM)
